# Reference: the supplement of paper PMC12067093, “Discovery and optimisation of a covalent ligand for TRIM25 and its application to targeted protein ubiquitination” (Chemical Science, 2025)
# The chains behind the UniProt entries cited, without tags or fusion partners. Where a name states a change or a piece, a line headed by the entry shows the natural chain unless it says otherwise.
# UniProt Q9HBE1: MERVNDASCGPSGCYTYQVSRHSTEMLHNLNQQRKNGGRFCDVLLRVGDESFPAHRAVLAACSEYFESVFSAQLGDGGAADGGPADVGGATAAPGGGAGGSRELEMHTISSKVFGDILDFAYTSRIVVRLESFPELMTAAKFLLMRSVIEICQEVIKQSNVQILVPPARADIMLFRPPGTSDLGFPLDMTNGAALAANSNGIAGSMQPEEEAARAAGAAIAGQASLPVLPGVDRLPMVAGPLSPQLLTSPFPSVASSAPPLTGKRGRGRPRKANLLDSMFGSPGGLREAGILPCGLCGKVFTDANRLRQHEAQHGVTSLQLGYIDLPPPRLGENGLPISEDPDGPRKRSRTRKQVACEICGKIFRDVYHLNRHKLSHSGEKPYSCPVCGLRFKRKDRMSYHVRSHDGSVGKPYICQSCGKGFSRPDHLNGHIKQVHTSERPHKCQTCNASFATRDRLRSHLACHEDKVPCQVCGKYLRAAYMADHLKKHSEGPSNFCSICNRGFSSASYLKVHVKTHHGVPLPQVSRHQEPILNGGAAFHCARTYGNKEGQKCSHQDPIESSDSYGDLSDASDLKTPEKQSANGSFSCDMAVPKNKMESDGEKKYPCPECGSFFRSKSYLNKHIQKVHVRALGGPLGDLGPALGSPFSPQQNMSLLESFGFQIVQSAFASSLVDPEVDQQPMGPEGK
# UniProt P49585: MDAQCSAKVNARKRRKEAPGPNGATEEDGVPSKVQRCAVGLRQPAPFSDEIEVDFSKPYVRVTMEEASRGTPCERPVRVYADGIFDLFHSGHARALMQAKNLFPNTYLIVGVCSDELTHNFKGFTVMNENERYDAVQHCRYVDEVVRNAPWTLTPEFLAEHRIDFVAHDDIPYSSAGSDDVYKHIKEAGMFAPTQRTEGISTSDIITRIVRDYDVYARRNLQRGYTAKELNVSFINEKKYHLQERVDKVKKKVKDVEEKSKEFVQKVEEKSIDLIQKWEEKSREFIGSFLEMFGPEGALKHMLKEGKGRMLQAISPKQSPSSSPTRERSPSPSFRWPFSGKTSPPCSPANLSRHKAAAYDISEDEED
# UniProt Q5JVF3: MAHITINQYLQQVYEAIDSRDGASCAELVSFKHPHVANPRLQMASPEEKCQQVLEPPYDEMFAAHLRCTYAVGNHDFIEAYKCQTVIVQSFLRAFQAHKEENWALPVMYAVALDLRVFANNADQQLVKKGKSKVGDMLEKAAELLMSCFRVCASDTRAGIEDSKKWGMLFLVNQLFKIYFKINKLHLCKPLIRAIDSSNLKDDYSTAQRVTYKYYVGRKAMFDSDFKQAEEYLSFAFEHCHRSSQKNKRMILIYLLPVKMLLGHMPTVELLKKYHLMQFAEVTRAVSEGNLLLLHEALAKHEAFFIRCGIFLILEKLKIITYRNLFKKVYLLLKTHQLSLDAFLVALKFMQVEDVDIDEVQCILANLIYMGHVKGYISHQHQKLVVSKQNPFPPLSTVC
# UniProt Q6ZW49, whole entry, looked up: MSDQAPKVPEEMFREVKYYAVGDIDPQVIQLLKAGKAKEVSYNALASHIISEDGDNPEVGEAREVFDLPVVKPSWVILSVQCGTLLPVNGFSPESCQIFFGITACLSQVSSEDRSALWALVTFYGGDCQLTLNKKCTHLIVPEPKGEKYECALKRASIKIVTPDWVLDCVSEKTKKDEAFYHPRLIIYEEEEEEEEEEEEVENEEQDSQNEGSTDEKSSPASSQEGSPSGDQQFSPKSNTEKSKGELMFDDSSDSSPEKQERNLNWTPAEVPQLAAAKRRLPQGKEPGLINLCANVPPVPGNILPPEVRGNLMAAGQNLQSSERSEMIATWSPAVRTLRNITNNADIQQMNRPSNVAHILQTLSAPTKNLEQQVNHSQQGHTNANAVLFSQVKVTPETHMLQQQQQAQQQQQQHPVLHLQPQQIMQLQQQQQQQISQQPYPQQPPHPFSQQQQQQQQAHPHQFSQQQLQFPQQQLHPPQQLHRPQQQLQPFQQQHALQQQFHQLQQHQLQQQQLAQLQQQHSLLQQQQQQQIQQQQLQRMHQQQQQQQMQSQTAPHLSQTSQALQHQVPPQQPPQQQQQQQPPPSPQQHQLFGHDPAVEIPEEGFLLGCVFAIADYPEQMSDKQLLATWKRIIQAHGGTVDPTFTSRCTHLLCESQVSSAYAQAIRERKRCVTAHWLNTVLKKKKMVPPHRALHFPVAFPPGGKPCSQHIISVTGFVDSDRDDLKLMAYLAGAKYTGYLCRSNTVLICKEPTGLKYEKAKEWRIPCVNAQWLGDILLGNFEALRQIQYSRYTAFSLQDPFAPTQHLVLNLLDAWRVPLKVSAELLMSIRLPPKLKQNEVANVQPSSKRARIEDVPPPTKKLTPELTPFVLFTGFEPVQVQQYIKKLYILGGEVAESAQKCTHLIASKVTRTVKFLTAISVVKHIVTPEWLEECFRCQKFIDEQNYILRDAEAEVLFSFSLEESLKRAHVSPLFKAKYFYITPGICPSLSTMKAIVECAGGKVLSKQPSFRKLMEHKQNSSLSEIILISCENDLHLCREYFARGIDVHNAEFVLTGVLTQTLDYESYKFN
# UniProt Q6P996: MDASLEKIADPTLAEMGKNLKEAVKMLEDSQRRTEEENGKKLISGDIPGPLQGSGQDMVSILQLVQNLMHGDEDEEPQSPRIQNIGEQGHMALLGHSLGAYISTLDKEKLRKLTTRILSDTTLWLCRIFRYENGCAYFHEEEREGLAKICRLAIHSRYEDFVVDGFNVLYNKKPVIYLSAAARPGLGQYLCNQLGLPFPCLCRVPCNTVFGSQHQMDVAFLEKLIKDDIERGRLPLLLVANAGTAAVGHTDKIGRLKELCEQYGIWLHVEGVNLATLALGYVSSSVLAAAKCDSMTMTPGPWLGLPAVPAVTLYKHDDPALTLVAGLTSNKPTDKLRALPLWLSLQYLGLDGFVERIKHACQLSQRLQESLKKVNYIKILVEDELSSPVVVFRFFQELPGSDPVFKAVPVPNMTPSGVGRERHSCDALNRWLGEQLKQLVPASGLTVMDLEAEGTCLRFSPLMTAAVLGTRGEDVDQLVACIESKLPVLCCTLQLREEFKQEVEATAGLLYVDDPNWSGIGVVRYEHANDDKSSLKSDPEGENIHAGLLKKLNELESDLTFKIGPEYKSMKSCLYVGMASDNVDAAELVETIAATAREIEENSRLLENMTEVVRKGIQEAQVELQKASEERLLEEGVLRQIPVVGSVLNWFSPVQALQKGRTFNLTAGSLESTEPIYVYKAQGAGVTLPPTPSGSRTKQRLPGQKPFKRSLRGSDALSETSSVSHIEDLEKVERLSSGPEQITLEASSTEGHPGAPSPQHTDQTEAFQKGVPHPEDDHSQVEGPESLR
# UniProt Q9NR12, whole entry, looked up: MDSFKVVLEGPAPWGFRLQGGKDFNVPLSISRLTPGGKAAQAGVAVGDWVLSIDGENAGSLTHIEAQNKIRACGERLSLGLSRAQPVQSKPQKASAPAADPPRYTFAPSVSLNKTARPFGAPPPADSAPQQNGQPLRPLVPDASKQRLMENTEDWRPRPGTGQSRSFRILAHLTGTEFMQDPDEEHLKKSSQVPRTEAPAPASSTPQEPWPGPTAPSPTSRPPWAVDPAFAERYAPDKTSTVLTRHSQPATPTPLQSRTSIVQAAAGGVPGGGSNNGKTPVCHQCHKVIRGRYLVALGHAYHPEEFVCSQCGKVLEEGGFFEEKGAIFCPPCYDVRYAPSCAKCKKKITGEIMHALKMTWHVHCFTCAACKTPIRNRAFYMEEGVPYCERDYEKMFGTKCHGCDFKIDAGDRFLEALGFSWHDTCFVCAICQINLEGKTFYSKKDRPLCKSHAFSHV
# UniProt Q14690: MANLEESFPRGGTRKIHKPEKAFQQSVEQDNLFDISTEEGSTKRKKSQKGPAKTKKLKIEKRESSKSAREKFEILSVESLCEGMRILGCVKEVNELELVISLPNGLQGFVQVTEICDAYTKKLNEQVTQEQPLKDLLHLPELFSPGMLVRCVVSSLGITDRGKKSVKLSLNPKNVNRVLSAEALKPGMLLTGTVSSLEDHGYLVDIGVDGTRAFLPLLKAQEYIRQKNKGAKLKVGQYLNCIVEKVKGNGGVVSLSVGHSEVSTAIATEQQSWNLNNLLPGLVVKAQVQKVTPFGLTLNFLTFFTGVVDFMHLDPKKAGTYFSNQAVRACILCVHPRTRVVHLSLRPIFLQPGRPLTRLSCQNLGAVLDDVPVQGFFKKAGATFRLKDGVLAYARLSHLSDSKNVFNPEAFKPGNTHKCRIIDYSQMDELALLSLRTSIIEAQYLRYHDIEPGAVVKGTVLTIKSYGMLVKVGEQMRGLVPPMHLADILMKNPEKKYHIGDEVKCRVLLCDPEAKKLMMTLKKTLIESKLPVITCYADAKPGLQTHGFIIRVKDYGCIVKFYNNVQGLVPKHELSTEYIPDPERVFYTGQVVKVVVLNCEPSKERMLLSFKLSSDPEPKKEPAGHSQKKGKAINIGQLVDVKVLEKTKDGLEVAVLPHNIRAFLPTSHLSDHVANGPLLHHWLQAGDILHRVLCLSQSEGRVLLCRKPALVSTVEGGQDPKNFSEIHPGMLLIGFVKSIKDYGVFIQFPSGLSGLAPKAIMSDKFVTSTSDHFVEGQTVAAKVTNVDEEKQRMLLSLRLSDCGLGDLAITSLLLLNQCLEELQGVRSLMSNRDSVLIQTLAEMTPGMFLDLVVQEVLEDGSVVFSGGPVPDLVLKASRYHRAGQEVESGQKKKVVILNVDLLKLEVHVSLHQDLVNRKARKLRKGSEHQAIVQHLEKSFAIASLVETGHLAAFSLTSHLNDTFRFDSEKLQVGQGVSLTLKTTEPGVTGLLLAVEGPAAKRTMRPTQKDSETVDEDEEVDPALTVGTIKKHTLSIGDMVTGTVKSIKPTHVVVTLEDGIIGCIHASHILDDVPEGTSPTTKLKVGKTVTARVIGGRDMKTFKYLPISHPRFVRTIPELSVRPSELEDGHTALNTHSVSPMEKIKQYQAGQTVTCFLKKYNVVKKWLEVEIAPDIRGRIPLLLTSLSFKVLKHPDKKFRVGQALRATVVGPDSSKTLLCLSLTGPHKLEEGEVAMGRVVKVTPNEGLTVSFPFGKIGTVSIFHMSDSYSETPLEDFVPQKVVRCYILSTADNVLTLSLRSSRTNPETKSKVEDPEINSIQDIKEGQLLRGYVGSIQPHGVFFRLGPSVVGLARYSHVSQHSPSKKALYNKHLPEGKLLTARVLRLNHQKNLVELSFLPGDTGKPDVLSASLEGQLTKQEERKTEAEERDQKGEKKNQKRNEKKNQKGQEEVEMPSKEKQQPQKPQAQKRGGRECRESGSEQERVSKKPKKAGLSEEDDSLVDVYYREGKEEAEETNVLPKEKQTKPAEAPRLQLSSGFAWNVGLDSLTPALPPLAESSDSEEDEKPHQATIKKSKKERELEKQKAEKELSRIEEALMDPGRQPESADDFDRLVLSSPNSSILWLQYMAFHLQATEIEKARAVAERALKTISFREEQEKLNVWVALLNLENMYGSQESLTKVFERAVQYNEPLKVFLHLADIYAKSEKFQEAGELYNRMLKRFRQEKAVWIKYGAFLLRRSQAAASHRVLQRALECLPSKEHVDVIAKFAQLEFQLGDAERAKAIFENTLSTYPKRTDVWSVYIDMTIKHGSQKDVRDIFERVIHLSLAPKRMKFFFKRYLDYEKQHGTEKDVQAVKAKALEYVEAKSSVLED
# UniProt Q9BUH6, whole entry, looked up: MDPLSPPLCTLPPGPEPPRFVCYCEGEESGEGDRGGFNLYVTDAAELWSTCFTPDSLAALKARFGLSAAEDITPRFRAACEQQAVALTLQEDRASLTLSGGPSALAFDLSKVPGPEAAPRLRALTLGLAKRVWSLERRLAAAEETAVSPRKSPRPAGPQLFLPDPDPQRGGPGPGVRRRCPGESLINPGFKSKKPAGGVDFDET
# UniProt Q15118, whole entry, looked up: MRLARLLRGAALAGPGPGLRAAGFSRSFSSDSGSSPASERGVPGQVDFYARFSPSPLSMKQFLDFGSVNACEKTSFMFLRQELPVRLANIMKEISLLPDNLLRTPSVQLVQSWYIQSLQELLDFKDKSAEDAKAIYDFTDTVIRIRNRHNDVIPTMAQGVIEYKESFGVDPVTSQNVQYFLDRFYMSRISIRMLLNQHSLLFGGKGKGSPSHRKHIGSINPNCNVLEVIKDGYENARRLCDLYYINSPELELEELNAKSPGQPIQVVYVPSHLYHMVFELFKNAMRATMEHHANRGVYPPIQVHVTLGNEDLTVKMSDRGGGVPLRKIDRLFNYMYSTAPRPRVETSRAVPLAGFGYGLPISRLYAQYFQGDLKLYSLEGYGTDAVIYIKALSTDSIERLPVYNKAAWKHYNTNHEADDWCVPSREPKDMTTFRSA
# UniProt O00764: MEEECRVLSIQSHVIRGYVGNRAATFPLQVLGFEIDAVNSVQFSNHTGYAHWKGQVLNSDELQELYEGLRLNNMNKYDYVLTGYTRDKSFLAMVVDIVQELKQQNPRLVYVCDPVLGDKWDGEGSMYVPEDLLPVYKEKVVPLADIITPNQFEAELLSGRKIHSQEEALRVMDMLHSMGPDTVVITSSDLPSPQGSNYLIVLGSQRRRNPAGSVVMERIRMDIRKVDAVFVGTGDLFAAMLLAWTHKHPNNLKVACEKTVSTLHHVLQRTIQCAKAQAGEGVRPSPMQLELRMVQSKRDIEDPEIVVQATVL
# The list shows a part of the results.
# Compound: Cc1cc(ccc1-c1ccccc1)C(=O)N1CCCN(CC1)C(=O)CCl [compound 10]
# Test: probe-labelled cysteine peptide fold change vs DMSO (competition) (log2 fold change); higher = less target engagement (more negative = stronger competition)
# Details: THP-1, incubation time: 4 h
# 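Further: competitive profiling in live THP-1 cells: cysteine peptides tagged with an iodoacetamide desthiobiotin (IA-DTB) probe, intensity after compound treatment relative to DMSO-treated cells.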
target,measurement,setting,value
PATZ1_Q9HBE1_610_KYPCPECGSFFR (UniProt Q9HBE1),probe-labelled cysteine peptide fold change,10 µM,0.149
same,probe-labelled cysteine peptide fold change,50 µM,0.151
PDF_Q9HBH1_222_IIQHEMDHLQGCLFIDK (UniProt Q9HBH1),probe-labelled cysteine peptide fold change,10 µM,0.00861
same,probe-labelled cysteine peptide fold change,50 µM,-0.0472
PDCD4_Q53EL6_350_EYLLSGDISEAEHCLK (UniProt Q53EL6),probe-labelled cysteine peptide fold change,10 µM,0.187
same,probe-labelled cysteine peptide fold change,50 µM,0.242
PCM1_Q15154_1872_PCYLNILEDEQPLNSAAHK (UniProt Q15154),probe-labelled cysteine peptide fold change,10 µM,-0.269
same,probe-labelled cysteine peptide fold change,50 µM,-0.229
PCYT1A_P49585_5_MDAQCSAK (UniProt P49585),probe-labelled cysteine peptide fold change,10 µM,-0.181
same,probe-labelled cysteine peptide fold change,50 µM,-0.352
PDIA6_Q15084_190_NVLDSEDVWMVEFYAPWCGHCK (UniProt Q15084),probe-labelled cysteine peptide fold change,10 µM,-0.574
same,probe-labelled cysteine peptide fold change,50 µM,-1.04
PCID2_Q5JVF3_83_CQTVIVQSFLR (UniProt Q5JVF3),probe-labelled cysteine peptide fold change,10 µM,0.134
same,probe-labelled cysteine peptide fold change,50 µM,0.222
PDLIM2_Q96JY6_334_GHFWVGDELYCEK (UniProt Q96JY6),probe-labelled cysteine peptide fold change,10 µM,0.139
same,probe-labelled cysteine peptide fold change,50 µM,0.0713
PAXIP1_Q6ZW49_671_CVTAHWLNTVLK (UniProt Q6ZW49),probe-labelled cysteine peptide fold change,10 µM,0.00423
same,probe-labelled cysteine peptide fold change,50 µM,-0.477
PDXDC1_Q6P996_481_GEDVDQLVACIESK (UniProt Q6P996),probe-labelled cysteine peptide fold change,10 µM,0.0475
same,probe-labelled cysteine peptide fold change,50 µM,-0.348
PCBP3_P57721_195_QICVVMLESPPK (UniProt P57721),probe-labelled cysteine peptide fold change,10 µM,0.0221
same,probe-labelled cysteine peptide fold change,50 µM,-0.183
PDLIM7_Q9NR12_367+370_MTWHVHCFTCAACK (UniProt Q9NR12),probe-labelled cysteine peptide fold change,10 µM,0.013
same,probe-labelled cysteine peptide fold change,50 µM,-0.216
PCYOX1_Q9UHG3_445_CPSIILHDR (UniProt Q9UHG3),probe-labelled cysteine peptide fold change,10 µM,-0.0279
same,probe-labelled cysteine peptide fold change,50 µM,0.322
PATZ1_Q9HBE1_463_SHLACHEDK (UniProt Q9HBE1),probe-labelled cysteine peptide fold change,10 µM,-0.0133
same,probe-labelled cysteine peptide fold change,50 µM,0.0509
PDCD11_Q14690_361_LSCQNLGAVLDDVPVQGFFK (UniProt Q14690),probe-labelled cysteine peptide fold change,10 µM,-0.3
same,probe-labelled cysteine peptide fold change,50 µM,-1.02
PDXP_Q96GD0_171_EACAHLRDPECLLVATDRDPWHPLSDGSR (UniProt Q96GD0),probe-labelled cysteine peptide fold change,10 µM,-0.186
same,probe-labelled cysteine peptide fold change,50 µM,-0.182
PAXX_Q9BUH6_80_AACEQQAVALTLQEDR (UniProt Q9BUH6),probe-labelled cysteine peptide fold change,10 µM,0.0589
same,probe-labelled cysteine peptide fold change,50 µM,0.192
PDK3_Q15120_191_HIGSIDPTCNVADVVK (UniProt Q15120),probe-labelled cysteine peptide fold change,10 µM,0.207
same,probe-labelled cysteine peptide fold change,50 µM,-0.0672
PDK1_Q15118_223_HIGSINPNCNVLEVIK (UniProt Q15118),probe-labelled cysteine peptide fold change,10 µM,-0.0597
same,probe-labelled cysteine peptide fold change,50 µM,0.498
PAXIP1_Q6ZW49_1029_QNSSLSEIILISCENDLHLCR (UniProt Q6ZW49),probe-labelled cysteine peptide fold change,10 µM,-0.00198
same,probe-labelled cysteine peptide fold change,50 µM,0.0614
PAXX_Q9BUH6_180_RCPGESLINPGFK (UniProt Q9BUH6),probe-labelled cysteine peptide fold change,10 µM,-0.248
same,probe-labelled cysteine peptide fold change,50 µM,-0.761
PCGF5_Q86SE9_34_GYLIKPTTVTECLHTFCK (UniProt Q86SE9),probe-labelled cysteine peptide fold change,10 µM,0.136
same,probe-labelled cysteine peptide fold change,50 µM,0.0991
PDHB_P11177_161_GPNGASAGVAAQHSQCFAAWYGHCPGLK (UniProt P11177),probe-labelled cysteine peptide fold change,10 µM,0.0402
same,probe-labelled cysteine peptide fold change,50 µM,0.218
PDCD11_Q14690_1154_QYQAGQTVTCFLK (UniProt Q14690),probe-labelled cysteine peptide fold change,10 µM,-0.169
same,probe-labelled cysteine peptide fold change,50 µM,0.294
PDE4DIP_Q5VU43_375_QCVQFVEAAAHESEQQK (UniProt Q5VU43),probe-labelled cysteine peptide fold change,10 µM,-0.0153
same,probe-labelled cysteine peptide fold change,50 µM,-0.224
PDXK_O00764_112_LVYVCDPVLGDK (UniProt O00764),probe-labelled cysteine peptide fold change,10 µM,-0.0684
same,probe-labelled cysteine peptide fold change,50 µM,0.408
PDIA5_Q14554_305_EHSSVLVMFHAPWCGHCK (UniProt Q14554),probe-labelled cysteine peptide fold change,10 µM,-0.084
same,probe-labelled cysteine peptide fold change,50 µM,-0.37
PDS5B_Q9NTI5_676_VLSFTHPISFHSAETFESLLACLK (UniProt Q9NTI5),probe-labelled cysteine peptide fold change,10 µM,0.192
same,probe-labelled cysteine peptide fold change,50 µM,-0.0917
PCBP1_Q15365_201_CSDAAGYPHATHDLEGPPLDAYSIQGQHTISPLDLAK (UniProt Q15365),probe-labelled cysteine peptide fold change,10 µM,-0.148
same,probe-labelled cysteine peptide fold change,50 µM,-0.076
PCYT1A_P49585_37_CAVGLR (UniProt P49585),probe-labelled cysteine peptide fold change,10 µM,-0.0934
same,probe-labelled cysteine peptide fold change,50 µM,-0.0815
PDCD11_Q14690_535_LPVITCYADAK (UniProt Q14690),probe-labelled cysteine peptide fold change,10 µM,-0.0187
same,probe-labelled cysteine peptide fold change,50 µM,0.416
PDXDC1_Q6P996_491_LPVLCCTLQLR (UniProt Q6P996),probe-labelled cysteine peptide fold change,10 µM,0.0445
same,probe-labelled cysteine peptide fold change,50 µM,-0.362
PCBP1_Q15365_158_AITIAGVPQSVTECVK (UniProt Q15365),probe-labelled cysteine peptide fold change,10 µM,0.332
same,probe-labelled cysteine peptide fold change,50 µM,-0.0314
PCCA_P05165_155_CLAAEDVVFIGPDTHAIQAMGDKIESK (UniProt P05165),probe-labelled cysteine peptide fold change,10 µM,-0.0769
same,probe-labelled cysteine peptide fold change,50 µM,-0.234
PDE12_Q6L8Q7_268_ELESVCVVEAGPGTCTFDHR (UniProt Q6L8Q7),probe-labelled cysteine peptide fold change,10 µM,-0.138
same,probe-labelled cysteine peptide fold change,50 µM,0.206
PDPR_Q8NCN5_85_FCAGILSTAR (UniProt Q8NCN5),probe-labelled cysteine peptide fold change,10 µM,-0.0294
same,probe-labelled cysteine peptide fold change,50 µM,-0.031
PCID2_Q5JVF3_25_DGASCAELVSFK (UniProt Q5JVF3),probe-labelled cysteine peptide fold change,10 µM,-0.229
same,probe-labelled cysteine peptide fold change,50 µM,-0.162
PBRM1_Q86U86_1244+1257_DFLSCRPTEIPENDILLCESR (UniProt Q86U86),probe-labelled cysteine peptide fold change,10 µM,-0.111
same,probe-labelled cysteine peptide fold change,50 µM,0.0674

# Part of the list above, with tabs.
target	measurement	setting	value
PDLIM7_Q9NR12_367+370_MTWHVHCFTCAACK (UniProt Q9NR12)	probe-labelled cysteine peptide fold change	50 µM	-0.216
PDK1_Q15118_223_HIGSINPNCNVLEVIK (UniProt Q15118)	probe-labelled cysteine peptide fold change	10 µM	-0.0597
